# Data published in the supplement of paper PMC8728848.
# The other results are listed elsewhere or left out.
# B1: AT1G80310(18) (Arabidopsis thaliana), Q0WP36 (protein)
# chain: METTTTPLLPGDRSRCGWLRRRLRLKNPLSSELSGAVGDLGTFIPIVLTLTLVSNLDLSTTLIFTGFYNIATGLLFDIPMPVQPMKSIAAVAVSESPHLTPSQIAAAGASTAATLLLLGATGAMSFLYNIIPLPVVRGVQLSQGLQFAFTAIKYVRFNYDTATLKPSSSPRIWLGLDGLILALAALLFIILSTGSGNDREAEDGDLAETSSNESQSRRRRLRLLSSIPSALIVFALGLVLCFIRDPSIFKDLKFGPSKFHILRISWDDWKIGFLRAAIPQIPLSVLNSVIAVCKLSNDLFDKELSATTVSISVGVMNLIGCWFGAMPVCHGAGGLAGQYRFGARSGLSVIFLGIGKLIVGLVFGNSFVRILSQFPIGILGVLLLFAGIELAMASKDMNSKEDSFIMLVCAAVSMTGSSAALGFGCGVVLYLLLKLRTLDCSSVTLFSRSSDESQVDSEAAPRDV
# Key:
# Assay in all cases: glycan array binding signal (z-score within array); higher = stronger binding
# Conditions in all cases: glycan notation: IUPAC condensed, linker removed
# [1] = molecular target: Neu5Ac(a2-6)Gal(b1-4)GlcNAc(b1-3)[Neu5Ac(a2-6)Gal(b1-4)GlcNAc(b1-6)]GalNAc
# In short: (§1)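 The Consortium for Functional Glycomics database supplied 3228 glycan arrays, of which those lacking an available protein sequence were dropped. The binding signal, a within-array Z-score, was averaged across arrays of the same protein sequence and across linkers. Negative scores can be read as non-binding.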
# [2] = molecular target: Neu5Ac(a2-6)Gal(b1-4)GlcNAc(b1-6)GalNAc
# In short: as §1
# [3] = molecular target: Neu5Ac(a2-6)Gal(b1-4)GlcNAc(b1-6)[Gal(b1-3)GlcNAc(b1-3)]Gal(b1-4)Glc
# In short: as §1
# [4] = molecular target: Neu5Ac(a2-6)Gal(b1-4)GlcNAc(b1-6)[Gal(b1-3)]GalNAc
# In short: as §1
# [5] = molecular target: Neu5Ac(a2-6)Gal(b1-4)GlcNAc6S
# In short: as §1
# Neu5Ac(a2-6)GalNAc = molecular target: Neu5Ac(a2-6)GalNAc
# In short: as §1
# [6] = molecular target: Neu5Ac(a2-6)GalNAc(b1-4)GlcNAc
# In short: as §1
# [7] = molecular target: Neu5Ac(a2-6)GalNAc(b1-4)GlcNAc6S
# In short: as §1
# [8] = molecular target: Neu5Ac(a2-6)GlcNAc(b1-4)GlcNAc
# In short: as §1
# [9] = molecular target: Neu5Ac(a2-6)GlcNAc(b1-4)GlcNAc(b1-4)GlcNAc
# In short: as §1
# Neu5Ac(a2-8)Neu5Ac = molecular target: Neu5Ac(a2-8)Neu5Ac
# In short: as §1
# [10] = molecular target: Neu5Ac(a2-8)Neu5Ac(a2-3)Gal(b1-3)GalNAc(b1-4)[Neu5Ac(a2-3)]Gal(b1-4)Glc
# In short: as §1
# [11] = molecular target: Neu5Ac(a2-8)Neu5Ac(a2-3)Gal(b1-3)GalNAc(b1-4)[Neu5Ac(a2-8)Neu5Ac(a2-3)]Gal(b1-4)Glc
# In short: as §1
# [12] = molecular target: Neu5Ac(a2-8)Neu5Ac(a2-3)Gal(b1-4)Glc
# In short: as §1
# [13] = molecular target: Neu5Ac(a2-8)Neu5Ac(a2-3)Gal(b1-4)GlcNAc
# In short: as §1
# [14] = molecular target: Neu5Ac(a2-8)Neu5Ac(a2-3)[Gal(b1-3)GalNAc(b1-4)]Gal(b1-4)Glc
# In short: as §1
# [15] = molecular target: Neu5Ac(a2-8)Neu5Ac(a2-3)[GalNAc(b1-4)]Gal(b1-4)Glc
# In short: as §1
# [16] = molecular target: Neu5Ac(a2-8)Neu5Ac(a2-8)Neu5Ac
# In short: as §1
# [17] = molecular target: Neu5Ac(a2-8)Neu5Ac(a2-8)Neu5Ac(a2-3)Gal(b1-4)Glc
# In short: as §1
# [18] = molecular target: Neu5Ac(a2-8)Neu5Ac(a2-8)Neu5Ac(a2-3)[Gal(b1-3)GalNAc(b1-4)]Gal(b1-4)Glc
# In short: as §1
# [19] = molecular target: Neu5Ac(a2-8)Neu5Ac(a2-8)Neu5Ac(a2-3)[GalNAc(b1-4)]Gal(b1-4)Glc
# In short: as §1
# [20] = molecular target: Neu5Ac(a2-8)Neu5Ac(a2-8)Neu5Ac(a2-8)Neu5Ac(a2-3)[GalNAc(b1-4)]Gal(b1-4)Glc
# In short: as §1
# [21] = molecular target: Neu5Ac(a2-8)Neu5Gc(a2-3)Gal(b1-4)GlcNAc
# In short: as §1
# [22] = molecular target: Neu5Ac(b2-6)Gal(b1-4)GlcNAc
# In short: as §1
# Neu5Ac(b2-6)GalNAc = molecular target: Neu5Ac(b2-6)GalNAc
# In short: as §1
# [23] = molecular target: Neu5Ac9Ac(a2-3)Gal(b1-3)GlcNAc
# In short: as §1
# [24] = molecular target: Neu5Ac9Ac(a2-3)Gal(b1-4)GlcNAc
# In short: as §1
# [25] = molecular target: Neu5Ac9Ac(a2-6)Gal(b1-4)GlcNAc
# In short: as §1
# [26] = molecular target: Neu5Gc(a2-3)Gal(b1-3)GlcNAc
# In short: as §1
# [27] = molecular target: Neu5Gc(a2-3)Gal(b1-3)[Fuc(a1-4)]GlcNAc
# In short: as §1
# Neu5Gc(a2-3)Gal(b1-4)Glc = molecular target: Neu5Gc(a2-3)Gal(b1-4)Glc
# In short: as §1
# [28] = molecular target: Neu5Gc(a2-3)Gal(b1-4)GlcNAc
# In short: as §1
# [29] = molecular target: Neu5Gc(a2-3)Gal(b1-4)GlcNAc(b1-3)Gal(b1-4)GlcNAc(b1-2)Man(a1-3)[Neu5Gc(a2-3)Gal(b1-4)GlcNAc(b1-3)Gal(b1-4)GlcNAc(b1-2)Man(a1-6)]Man(b1-4)GlcNAc(b1-4)GlcNAc
# In short: as §1
# [30] = molecular target: Neu5Gc(a2-3)Gal(b1-4)[Fuc(a1-3)]GlcNAc
# In short: as §1
# [31] = molecular target: Neu5Gc(a2-6)Gal(b1-4)GlcNAc
# In short: as §1
# Neu5Gc(a2-6)GalNAc = molecular target: Neu5Gc(a2-6)GalNAc
# In short: as §1
# [32] = molecular target: Neu5Gc(a2-8)Neu5Ac(a2-3)Gal(b1-4)GlcNAc
# In short: as §1
# [33] = molecular target: Neu5Gc(a2-8)Neu5Gc(a2-3)Gal(b1-4)GlcNAc
# In short: as §1
binder,measurement,setting,value
B1,glycan array binding signal (z-score),[1],-0.793
same,glycan array binding signal (z-score),[2],0.866
same,glycan array binding signal (z-score),[3],0.556
same,glycan array binding signal (z-score),[4],-0.502
same,glycan array binding signal (z-score),[5],0.953
same,glycan array binding signal (z-score),Neu5Ac(a2-6)GalNAc,-0.661
same,glycan array binding signal (z-score),[6],-0.373
same,glycan array binding signal (z-score),[7],-0.543
same,glycan array binding signal (z-score),[8],-0.855
same,glycan array binding signal (z-score),[9],-0.651
same,glycan array binding signal (z-score),Neu5Ac(a2-8)Neu5Ac,-0.857
same,glycan array binding signal (z-score),[10],-0.86
same,glycan array binding signal (z-score),[11],0.359
same,glycan array binding signal (z-score),[12],-0.678
same,glycan array binding signal (z-score),[13],-0.661
same,glycan array binding signal (z-score),[14],-0.952
same,glycan array binding signal (z-score),[15],-0.61
same,glycan array binding signal (z-score),[16],-0.762
same,glycan array binding signal (z-score),[17],-0.862
same,glycan array binding signal (z-score),[18],-0.653
same,glycan array binding signal (z-score),[19],-0.581
same,glycan array binding signal (z-score),[20],-0.09
same,glycan array binding signal (z-score),[21],-0.745
same,glycan array binding signal (z-score),[22],0.021
same,glycan array binding signal (z-score),Neu5Ac(b2-6)GalNAc,-1.09
same,glycan array binding signal (z-score),[23],-0.052
same,glycan array binding signal (z-score),[24],-0.269
same,glycan array binding signal (z-score),[25],-0.518
same,glycan array binding signal (z-score),[26],-0.667
same,glycan array binding signal (z-score),[27],-0.584
same,glycan array binding signal (z-score),Neu5Gc(a2-3)Gal(b1-4)Glc,-0.211
same,glycan array binding signal (z-score),[28],-0.539
same,glycan array binding signal (z-score),[29],-0.466
same,glycan array binding signal (z-score),[30],-0.095
same,glycan array binding signal (z-score),[31],-0.536
same,glycan array binding signal (z-score),Neu5Gc(a2-6)GalNAc,0.551
same,glycan array binding signal (z-score),[32],-0.405
same,glycan array binding signal (z-score),[33],-0.578

# Three entries from above, bar-delimited:
binder | measurement | setting | value
B1 | glycan array binding signal (z-score) | [13] | -0.661
same | glycan array binding signal (z-score) | [14] | -0.952
same | glycan array binding signal (z-score) | [15] | -0.61
